Measurements published in publication PMC11790089.

Target: Flag-tagged pLORF1 (MDV-1 Md5 LORF1 gene product) (Marek's disease virus serotype 1 (MDV-1, Gallid herpesvirus 2), strain Md5)
Experiment: co-IP; 293T cells co-transfected with Flag-tagged pLORF1 and HA-tagged HSV-1 proteins or EBV BGLF2 for 36 hours; whole cell lysates (50 mM Tris-HCl pH 7.5, 150 mM NaCl, 1 mM EDTA, 0.5% NP-40) precipitated with anti-Flag antibody and protein A/G magnetic beads, 4 hours at 4°C; control mouse IgG; blots with anti-Flag and anti-HA

B1: HA-tagged EBV tegument protein BGLF2 (protein, UniProt P0CK53 1-336)
chain: MASAANSSREQLRKFLNKECLWVLSDASTPQMKVYTATTAVSAVYVPQIAGPPKTYMNVTLIVLKPKKKPTYVTVYINGTLATVARPEVLFTKAVQGPHSLTLMYFGVFSDAVGEAVPVEIRGNPVVTCTDLTTAHVFTTSTAVKTVEELQDITPSEIIPLGRGGAWYAEGALYMFFVNMDMLMCCPNMPTFPSLTHFINLLTRCDNGECVTCYGAGAHVNILRGWTEDDSPGTSGTCPCLLPCTALNNDYVPITGHRALLGLMFKPEDAPFVVGLRFNPPKMHPDMSRVLQGVLANGKEVPCTAQPWTLLRFSDLYSRAMLYNCQVLKRQVLHSY
**Q.** B1 was tested. Which binding did it give?
**A.** Its binding is “no binding”.

These are yes or no findings as the source states them, for the method shown. In cells and extracts the contact can be indirect. Where a sequence is shown, tags or fusion partners need not be part of it.
